Here are results for 61 compounds from PubChem BioAssay AID445 (National Center for Advancing Translational Sciences (NCATS), 2006).

The other results are listed elsewhere or left out. Shown are side measurements of this screen, not its main read-out; they come without a call. The list favours compounds with an active or inconclusive main result. Potencies come from curve fits of mixed quality, noted in brackets.

The test can be described thus: IkB Signaling. Conditions: ABC-DLBCL IkBa-CBG/CBR dual luciferase ratio (green luciferase fused to IkBa over red control in OCI-Ly3 lymphoma cells), 4 h; measured here: control luc red channel unless noted. The essentials:
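Luminescence ratio of IκBα-fused green versus native red beetle luciferase in OCI-Ly3 cells, 4 h post-doxycycline with compound; red signal alone, scaled from basal (0%) to zero light (-100%), flagged nonspecific or cytotoxic effects.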
Broadly, the AC50 is the midpoint of the concentration-response curve, whichever way the signal moves. As to `CCCC(=O)Nc1ccc2oc(-c3cccnc3)nc2c1`, the AC50 is 0.1 µM [rising, full curve, poor fit].
For the compound `Cc1ccc(-c2csc(NC(=O)c3cccc(S(=O)(=O)N4CCN(C)CC4)c3)n2)cc1`, the half-maximal activity concentration (AC50) was 12.6 µM [falling, partial curve].
Consider `COc1ccc(NCc2cc3cc4c(cc3n(CC(=O)Nc3ccc(F)cc3)c2=O)OCCO4)cc1`, for which the AC50 is 15.8 µM [falling, partial curve].
For the compound `COc1cccc(C(=O)N(Cc2cccnc2)c2nc3c(OC)ccc(C)c3s2)c1OC`, the AC50 is 15.8 µM [falling, partial curve].
Regarding `O=C(CSc1nc2ccccc2nc1Cc1ccc(Cl)cc1)N1CCCc2ccccc21`, the AC50 was 31.6 µM [falling, partial curve].
`COc1ccc(NC(=O)c2ccc(COc3ccccc3Br)o2)cc1OC`: the half-maximal activity concentration (AC50) is 7.94 µM [falling, partial curve].
In the case of `O=C(c1ccc([N+](=O)[O-])cc1)[C@@H](Br)[C@@H](Br)c1ccnc2ccccc12`, the AC50 was 6.31 µM [rising, single point] [measured here: IkB-luc green channel].
For `Cn1c(=O)c2c(nc(SCCOc3ccc4ccc(=O)oc4c3)n2C)n(C)c1=O`, the AC50 is 2 µM [falling, full curve, poor fit].
The value for `COC(=O)C(C)Sc1nc2c(cnn2-c2ccc(F)cc2)c(=O)[nH]1` (stereo unspecified) was 3.98 µM [rising, partial curve]; that for `Cc1nc2ccccc2n2c(-c3ccccc3)c3c(=O)n(C)c(=O)n(C)c3c12` was 39.8 µM [falling, single point]; that for `CCOC(=O)Cn1c(=O)n(C2CCCCC2)c2nc(-c3ccc(CC)cc3)nc(C(N)=O)c21` was 39.8 µM [rising, single point].
The value for `Cc1cc(C)cc(NC(=O)Cn2c(=O)n(-c3cc(C)cc(C)c3)c(=O)c3oc4ccccc4c32)c1` was 10 µM [falling, partial curve]; that for `Cc1ccc(S(=O)(=O)NCCc2csc(-c3ccc(Cl)cc3)n2)cc1` was 10 µM [falling, partial curve].
Take `Cc1c(Cl)cccc1NC(=O)CCS(=O)(=O)c1ccc2c(c1)oc(=O)n2C`: the AC50 was 0.01 µM [falling, full curve, poor fit].
The value for `Cc1ccc(NC(=O)CSc2nnc(-c3ccccc3Br)o2)cc1C` was 20 µM [falling, partial curve]; that for `Cc1cc2nc(-c3ccc(SCC(=O)N4CCOCC4)nc3)[nH]c2cc1C` was 15.8 µM [falling, partial curve].
In the case of `CCOC(=O)c1oc2ccc(S(=O)(=O)n3nc(-c4ccccc4OC)cc3N)cc2c1C`, the AC50 is 12.6 µM [falling, partial curve].
Turning to `O=C(O)CSCCCC(=O)Nc1ccc(Br)cc1`, the AC50 was 31.6 µM [falling, partial curve].
Regarding `CCCC(=O)Nc1cccc(NC(=O)c2ccc3c(c2)OCO3)c1`, the AC50 is 15.8 µM [falling, partial curve].
As for `CCn1c(=O)n(-c2ccc(C)c(F)c2)c(=O)c2sc3ccccc3c21`, the figure is 6.31 µM [rising, single point]; as for `CCOCCCNC(=O)c1ccc2nc(CCc3ccccc3)oc2c1`, 1 µM [rising, full curve, poor fit]; as for `COc1ccc(C2=NC3(CCCCC3)N(CC(=O)Nc3ccc(C(C)C)cc3)C2=O)cc1`, 15.8 µM [falling, partial curve].
Take `Cn1c(=O)c2c(-c3ccccc3)n3c(c2n(C)c1=O)C(c1ccccc1[N+](=O)[O-])Nc1ccccc1-3` (stereo unspecified): the AC50 is 39.8 µM [falling, single point].
As for `Cn1c(=O)c2c(c3ccccc31)OC(=O)CC2c1ccc(C(F)(F)F)cc1` (stereo unspecified), the figure is 31.6 µM [falling, single point]; as for `COc1cccc(NC(=O)c2sc3nc(C)c(C(=O)Nc4ccc(C)cc4C)c(-c4ccccc4Cl)c3c2N)c1`, 12.6 µM [falling, partial curve].
On to `CCc1ccc(-c2nc(CN3CCC(C(=O)NCCc4ccc(Cl)cc4)CC3)c(C)o2)cc1`, for which the AC50 was 10 µM [falling, partial curve].
In the case of `COc1ccc(C)cc1NC(=O)CN(Cc1nnc(-c2ccc(Cl)cc2)o1)C1CCCC1`, the half-maximal activity concentration (AC50) was 12.6 µM [falling, partial curve].
As to `Cn1c2ccccc2c2c(C(=O)N3CCN(c4ccccc4)CC3)cn(C3CCCC3)c(=O)c21`, the AC50 was 12.6 µM [falling, partial curve].
For the compound `Cc1ccc2nc(N(Cc3cccnc3)C(=O)Cc3ccccc3)sc2c1`, the AC50 was 39.8 µM [falling, single point].
The value for `CCc1ccccc1NC(=O)CCn1nc(C)c2c(C)n(-c3ccccc3)nc2c1=O` was 31.6 µM [falling, single point].
With `Cc1ccccc1Cn1c(SCc2ccc(C(=O)NC(C)c3ccccc3)cc2)nc2ccncc21` (stereo unspecified), the AC50 is 15.8 µM [falling, partial curve].
As for `Fc1ccc(NCc2cccn2-c2nnc(N3CCOCC3)s2)cc1`, the figure is 0.501 µM [falling, full curve]; as for `CC1CCN(c2ncnc3c2cnn3-c2ccc(F)cc2)CC1`, 20 µM [falling, partial curve]; as for `O=C(NCCc1cccs1)c1ccc(Cn2c(SCc3ccc(F)cc3)nc3cccnc32)cc1`, 10 µM [falling, partial curve].
As for `COc1ccc(C(=O)CN2CCN(S(=O)(=O)c3ccc(C(C)C)cc3)CC2)cc1`, the figure is 20 µM [falling, single point]; as for `COc1cccc(N2CC(NC(=O)Cc3cccs3)CC2=O)c1` (stereo unspecified), 6.31 µM [rising, single point].
Regarding `CCOc1ccc(-c2cc(CCCC(=O)NCc3ccco3)no2)cc1`, the AC50 was 2 µM [falling, partial curve].
Consider `CCn1cc(C(=O)NCCc2ccc(C)cc2)c(=O)c2cc(S(=O)(=O)N(C)C)ccc21`, for which the AC50 was 12.6 µM [rising, partial curve, poor fit].
Regarding `Cc1ccccc1C(=O)Nc1ccccc1C(=O)OCc1cc(=O)n2ccsc2n1`, the half-maximal activity concentration (AC50) is 10 µM [falling, full curve].
For the compound `Cc1cc(C)c(Cn2c3ccccc3c3cnn(CC(=O)N4CCCCC4)c(=O)c32)c(C)c1`, the AC50 was 12.6 µM [falling, partial curve].
The value for `O=C(CSc1nnc(-c2ccc(O)cc2)n1Cc1ccco1)N1CCc2ccccc2C1` was 15.8 µM [falling, partial curve]; that for `Cc1c(Cl)cccc1NS(=O)(=O)c1ccc2[nH]cc(C(=O)NC3CCCC3)c(=O)c2c1` was 15.8 µM [falling, partial curve]; that for `Cc1ccc(S(=O)(=O)c2nc(-c3cccs3)oc2N2CCCCC2)cc1` was 39.8 µM [falling, single point].
On to `Oc1ccccc1C1Nc2cccc3cccc(c23)N1`, for which the AC50 is 15.8 µM [rising, partial curve] [measured here: IkB-luc green channel].
Take `CC(=O)c1cccc(NS(=O)(=O)c2ccc3[nH]c4c(c3c2)CCCCCC4)c1`: the AC50 is 39.8 µM [falling, single point].
As for `N#CC1=C(N)SC(N)=C(C#N)C1CCC1CCCCC1`, the AC50 was 25.1 µM [falling, partial curve].
As for `CCN(CC)S(=O)(=O)c1ccc2c(c1)nc(SCc1nc3ccsc3c(=O)[nH]1)n2CC`, the figure is 3.16 µM [falling, partial curve].
In the case of `CCCCOc1ccc(CNC(=O)CN2CCSc3ccccc32)cc1`, the half-maximal activity concentration (AC50) was 25.1 µM [falling, partial curve].
Consider `O=C(NCc1ccco1)c1cc2ccccc2c(=O)o1`, for which the concentration at half-maximal activity (AC50) was 20 µM [falling, single point].
With `O=C(CSc1ncccc1-c1nc2ccccc2[nH]1)NC1CC1`, the half-maximal activity concentration (AC50) was 0.158 µM [falling, full curve].
For the compound `CCn1c(SCC(=O)c2cc(C)n(-c3ccc(C(=O)OC)cc3)c2C)nnc1-c1cccnc1`, the AC50 is 10 µM [falling, partial curve].
Turning to `Cc1nc2nc(NC(=O)c3cccc(Cl)c3)[nH]n2c(=O)c1Cc1ccccc1`, the AC50 is 12.6 µM [falling, single point].
In the case of `CCC(C(=O)N1CCN(c2cccc(C)c2C)CC1)n1nc(C)c2sc3ccccc3c2c1=O` (stereo unspecified), the AC50 is 12.6 µM [falling, partial curve].
The value for `COc1ccc(CCNC(=O)CCc2c(C)nc3c(c(C)nn3-c3ccc(C)c(C)c3)c2C)c(OC)c1OC` was 15.8 µM [falling, partial curve].
`Cc1ccc(NC(=O)CCn2c(=O)c3cccn3c3ccccc32)c(Cl)c1`: the AC50 is 25.1 µM [falling, partial curve].
In the case of `NS(=O)(=O)c1ccc(CCNC(=O)CCCCCn2c(=O)[nH]c3ccccc3c2=O)cc1`, the half-maximal activity concentration (AC50) was 1.58 µM [rising, full curve].
Regarding `Cc1ccc(NC(=O)c2nn(C)c3c2CS(=O)(=O)c2ccccc2-3)c(Cl)c1`, the AC50 is 31.6 µM [falling, single point].
Turning to `CCCOc1c(OC)cccc1C1CC(=O)Nc2cc3c(cc21)OCO3` (stereo unspecified), the AC50 was 12.6 µM [falling, partial curve].
On to `O=C(CCCCCn1c(=O)c2sccc2n(CC(=O)Nc2cccc(Cl)c2)c1=O)NCc1ccc2c(c1)OCO2`, for which the AC50 was 3.98 µM [falling, full curve].
With `COc1ccc(-c2nc3c(c(SCC(=O)Nc4ccc(C(=O)O)cc4)n2)Cc2ccccc2O3)cc1`, the AC50 is 15.8 µM [falling, partial curve].
For `CCOC(=O)Cc1ccc(NC(=O)Nc2cccc(OCc3cc(=O)n4cc(C)ccc4n3)c2)cc1`, the AC50 was 2.51 µM [falling, partial curve].
